Measurements reported in publication PMC13196150.
These are yes or no findings as the source states them, for the method shown. In cells and extracts the contact can be indirect. Some entries that bind do so weakly or less than the wild type. Where a sequence is shown, tags or fusion partners need not be part of it.

Sequences of proteins named here, by UniProt entry; tags and fusion partners are left off. Residues count along the entry.
UniProt Q3ZCQ8, residues 45-353: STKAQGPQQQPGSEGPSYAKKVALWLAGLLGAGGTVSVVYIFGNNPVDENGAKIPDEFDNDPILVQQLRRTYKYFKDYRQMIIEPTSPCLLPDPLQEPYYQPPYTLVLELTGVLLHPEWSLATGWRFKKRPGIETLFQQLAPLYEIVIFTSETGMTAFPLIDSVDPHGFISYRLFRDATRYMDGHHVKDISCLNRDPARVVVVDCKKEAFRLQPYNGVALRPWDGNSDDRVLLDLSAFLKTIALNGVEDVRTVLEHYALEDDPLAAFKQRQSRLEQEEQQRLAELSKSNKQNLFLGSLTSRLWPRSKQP

T1: GLUT10/V5 (glucose transporter 10, V5-tagged) (mouse) (UniProt Q8VHD6)
T1 sequence: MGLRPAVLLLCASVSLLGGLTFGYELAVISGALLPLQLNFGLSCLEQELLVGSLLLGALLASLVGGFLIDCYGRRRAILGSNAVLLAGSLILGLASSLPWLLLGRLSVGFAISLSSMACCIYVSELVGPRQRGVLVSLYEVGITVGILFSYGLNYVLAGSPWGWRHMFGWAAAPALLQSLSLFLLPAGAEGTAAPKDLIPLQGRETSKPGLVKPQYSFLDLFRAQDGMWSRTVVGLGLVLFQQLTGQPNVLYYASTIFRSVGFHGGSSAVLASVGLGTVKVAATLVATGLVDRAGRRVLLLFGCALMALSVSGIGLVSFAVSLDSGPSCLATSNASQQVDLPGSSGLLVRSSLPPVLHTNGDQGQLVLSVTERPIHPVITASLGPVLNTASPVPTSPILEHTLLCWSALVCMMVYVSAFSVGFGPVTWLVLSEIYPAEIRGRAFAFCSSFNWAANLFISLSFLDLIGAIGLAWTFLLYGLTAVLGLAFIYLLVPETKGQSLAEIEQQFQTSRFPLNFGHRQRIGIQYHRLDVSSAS


What was measured:
[1] = target: T1, GLUT10/V5 (glucose transporter 10, V5-tagged) (mouse); test: co-IP; whole-cell lysates of T-REx-293 cells expressing GLUT10/V5; IP with anti-V5 or, reciprocally, anti-TIM50 antibodies against control IgG; immunoblot for V5 and TIM50
[2] = target: TIM50 (mitochondrial inner membrane protein, mitochondrial translocase) (human (endogenous in T-REx-293)) (UniProt Q3ZCQ8); test: as above

binding [1] | binding [2] | Molecule
binds | – | TIM50 (mitochondrial inner membrane protein, mitochondrial translocase) (from UniProt Q3ZCQ8 45-353)
– | binds | GLUT10/V5 (glucose transporter 10, V5-tagged) (protein, UniProt Q8VHD6 1-536) MGLRPAVLLLCASVSLLGGLTFGYELAVISGALLPLQLNFGLSCLEQELLVGSLLLGALLASLVGGFLIDCYGRRRAILGSNAVLLAGSLILGLASSLPWLLLGRLSVGFAISLSSMACCIYVSELVGPRQRGVLVSLYEVGITVGILFSYGLNYVLAGSPWGWRHMFGWAAAPALLQSLSLFLLPAGAEGTAAPKDLIPLQGRETSKPGLVKPQYSFLDLFRAQDGMWSRTVVGLGLVLFQQLTGQPNVLYYASTIFRSVGFHGGSSAVLASVGLGTVKVAATLVATGLVDRAGRRVLLLFGCALMALSVSGIGLVSFAVSLDSGPSCLATSNASQQVDLPGSSGLLVRSSLPPVLHTNGDQGQLVLSVTERPIHPVITASLGPVLNTASPVPTSPILEHTLLCWSALVCMMVYVSAFSVGFGPVTWLVLSEIYPAEIRGRAFAFCSSFNWAANLFISLSFLDLIGAIGLAWTFLLYGLTAVLGLAFIYLLVPETKGQSLAEIEQQFQTSRFPLNFGHRQRIGIQYHRLDVSSAS
